Assay results: the supplement of paper PMC10849652
This is one part of the list.

Amino acid sequences for entries named in this document (tags omitted). A change or cut given only in a name is not applied to a line headed by its entry.
UniProt P11086: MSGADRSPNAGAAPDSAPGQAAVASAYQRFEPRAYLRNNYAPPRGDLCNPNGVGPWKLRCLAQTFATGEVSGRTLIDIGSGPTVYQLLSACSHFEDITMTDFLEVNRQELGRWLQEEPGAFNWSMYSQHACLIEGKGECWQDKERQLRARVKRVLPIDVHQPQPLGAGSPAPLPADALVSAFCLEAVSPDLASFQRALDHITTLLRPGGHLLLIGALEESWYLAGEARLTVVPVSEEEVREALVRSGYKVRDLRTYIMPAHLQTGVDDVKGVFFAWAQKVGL
UniProt P55058, whole entry, looked up: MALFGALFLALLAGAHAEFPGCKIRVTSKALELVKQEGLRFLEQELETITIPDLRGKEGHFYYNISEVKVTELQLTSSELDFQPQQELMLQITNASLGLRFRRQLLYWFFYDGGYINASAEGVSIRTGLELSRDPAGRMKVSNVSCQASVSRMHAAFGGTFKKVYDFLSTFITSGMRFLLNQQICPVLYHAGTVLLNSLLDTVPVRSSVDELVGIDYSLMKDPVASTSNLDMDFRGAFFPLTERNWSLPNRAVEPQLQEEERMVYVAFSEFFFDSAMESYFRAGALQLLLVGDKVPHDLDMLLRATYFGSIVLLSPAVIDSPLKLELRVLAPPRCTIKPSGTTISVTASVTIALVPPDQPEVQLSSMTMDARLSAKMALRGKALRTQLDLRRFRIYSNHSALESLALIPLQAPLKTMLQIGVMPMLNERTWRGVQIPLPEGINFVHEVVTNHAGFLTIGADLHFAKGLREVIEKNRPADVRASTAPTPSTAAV
POLG, A0A3B3IS91, UniProt A0A3B3IS91, whole entry, looked up: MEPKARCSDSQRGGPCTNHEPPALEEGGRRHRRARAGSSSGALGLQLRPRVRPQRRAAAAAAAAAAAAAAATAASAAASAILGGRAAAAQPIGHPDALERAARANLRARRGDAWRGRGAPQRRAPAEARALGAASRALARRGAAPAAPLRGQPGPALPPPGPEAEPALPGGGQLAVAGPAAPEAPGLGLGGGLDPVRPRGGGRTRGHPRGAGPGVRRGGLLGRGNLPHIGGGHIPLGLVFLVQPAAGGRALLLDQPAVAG
UniProt Q9NRY6: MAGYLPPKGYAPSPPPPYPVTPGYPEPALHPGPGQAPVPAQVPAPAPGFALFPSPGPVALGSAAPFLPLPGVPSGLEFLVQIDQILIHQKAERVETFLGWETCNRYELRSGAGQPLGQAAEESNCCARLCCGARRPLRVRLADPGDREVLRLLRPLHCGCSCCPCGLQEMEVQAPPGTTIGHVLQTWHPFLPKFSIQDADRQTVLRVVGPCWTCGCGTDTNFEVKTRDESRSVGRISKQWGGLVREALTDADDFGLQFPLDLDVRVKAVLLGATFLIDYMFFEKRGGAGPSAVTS
UniProt Q9HBL7: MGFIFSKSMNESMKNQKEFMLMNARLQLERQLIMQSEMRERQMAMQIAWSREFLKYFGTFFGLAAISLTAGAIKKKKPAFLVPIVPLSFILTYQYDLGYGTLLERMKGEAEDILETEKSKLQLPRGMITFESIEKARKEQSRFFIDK
UniProt Q8IY17: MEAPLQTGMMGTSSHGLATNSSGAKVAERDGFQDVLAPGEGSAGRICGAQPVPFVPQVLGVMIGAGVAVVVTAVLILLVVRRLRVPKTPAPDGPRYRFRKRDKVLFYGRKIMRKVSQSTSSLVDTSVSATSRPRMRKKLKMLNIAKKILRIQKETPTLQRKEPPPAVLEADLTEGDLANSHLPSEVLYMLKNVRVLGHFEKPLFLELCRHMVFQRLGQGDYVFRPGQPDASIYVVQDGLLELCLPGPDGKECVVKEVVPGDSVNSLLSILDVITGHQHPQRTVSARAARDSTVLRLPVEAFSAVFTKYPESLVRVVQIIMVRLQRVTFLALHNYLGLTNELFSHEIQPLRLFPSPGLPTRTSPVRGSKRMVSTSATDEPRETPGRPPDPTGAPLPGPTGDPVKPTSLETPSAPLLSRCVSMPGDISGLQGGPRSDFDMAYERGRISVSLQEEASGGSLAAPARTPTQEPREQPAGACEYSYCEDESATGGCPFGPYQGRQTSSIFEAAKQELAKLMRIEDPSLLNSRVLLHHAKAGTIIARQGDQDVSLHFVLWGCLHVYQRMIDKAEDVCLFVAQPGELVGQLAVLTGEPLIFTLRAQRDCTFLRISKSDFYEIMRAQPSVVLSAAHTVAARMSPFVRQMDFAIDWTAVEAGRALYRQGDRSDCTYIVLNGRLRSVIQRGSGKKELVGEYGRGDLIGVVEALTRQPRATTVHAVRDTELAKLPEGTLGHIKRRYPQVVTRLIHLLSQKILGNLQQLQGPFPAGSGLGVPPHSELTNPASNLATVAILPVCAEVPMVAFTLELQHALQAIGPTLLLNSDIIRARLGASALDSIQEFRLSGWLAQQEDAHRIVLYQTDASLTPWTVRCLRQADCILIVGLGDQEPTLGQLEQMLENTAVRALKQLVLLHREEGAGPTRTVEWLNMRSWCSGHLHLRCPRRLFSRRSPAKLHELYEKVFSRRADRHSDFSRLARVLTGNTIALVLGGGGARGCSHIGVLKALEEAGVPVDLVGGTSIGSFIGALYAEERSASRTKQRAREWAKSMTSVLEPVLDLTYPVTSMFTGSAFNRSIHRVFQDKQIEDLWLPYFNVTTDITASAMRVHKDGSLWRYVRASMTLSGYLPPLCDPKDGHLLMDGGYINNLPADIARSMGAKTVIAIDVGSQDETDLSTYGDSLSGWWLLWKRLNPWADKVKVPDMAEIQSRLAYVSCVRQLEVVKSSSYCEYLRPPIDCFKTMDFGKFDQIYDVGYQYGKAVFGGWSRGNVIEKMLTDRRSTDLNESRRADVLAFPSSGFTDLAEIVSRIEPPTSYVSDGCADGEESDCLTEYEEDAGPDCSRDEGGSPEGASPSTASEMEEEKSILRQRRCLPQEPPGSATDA
UniProt Q8NEY8: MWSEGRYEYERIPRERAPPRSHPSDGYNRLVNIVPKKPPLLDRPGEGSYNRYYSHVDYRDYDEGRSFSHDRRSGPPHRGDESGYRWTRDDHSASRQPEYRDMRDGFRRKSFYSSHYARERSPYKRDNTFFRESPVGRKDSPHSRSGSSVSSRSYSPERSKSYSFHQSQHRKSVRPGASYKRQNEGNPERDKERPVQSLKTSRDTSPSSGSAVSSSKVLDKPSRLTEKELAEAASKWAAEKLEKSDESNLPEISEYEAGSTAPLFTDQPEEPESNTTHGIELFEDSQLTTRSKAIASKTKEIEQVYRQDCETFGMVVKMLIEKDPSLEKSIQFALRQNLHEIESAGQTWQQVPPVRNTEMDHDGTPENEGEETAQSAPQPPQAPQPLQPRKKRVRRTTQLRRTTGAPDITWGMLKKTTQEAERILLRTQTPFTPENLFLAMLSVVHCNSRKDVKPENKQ
UniProt Q9Y6A1: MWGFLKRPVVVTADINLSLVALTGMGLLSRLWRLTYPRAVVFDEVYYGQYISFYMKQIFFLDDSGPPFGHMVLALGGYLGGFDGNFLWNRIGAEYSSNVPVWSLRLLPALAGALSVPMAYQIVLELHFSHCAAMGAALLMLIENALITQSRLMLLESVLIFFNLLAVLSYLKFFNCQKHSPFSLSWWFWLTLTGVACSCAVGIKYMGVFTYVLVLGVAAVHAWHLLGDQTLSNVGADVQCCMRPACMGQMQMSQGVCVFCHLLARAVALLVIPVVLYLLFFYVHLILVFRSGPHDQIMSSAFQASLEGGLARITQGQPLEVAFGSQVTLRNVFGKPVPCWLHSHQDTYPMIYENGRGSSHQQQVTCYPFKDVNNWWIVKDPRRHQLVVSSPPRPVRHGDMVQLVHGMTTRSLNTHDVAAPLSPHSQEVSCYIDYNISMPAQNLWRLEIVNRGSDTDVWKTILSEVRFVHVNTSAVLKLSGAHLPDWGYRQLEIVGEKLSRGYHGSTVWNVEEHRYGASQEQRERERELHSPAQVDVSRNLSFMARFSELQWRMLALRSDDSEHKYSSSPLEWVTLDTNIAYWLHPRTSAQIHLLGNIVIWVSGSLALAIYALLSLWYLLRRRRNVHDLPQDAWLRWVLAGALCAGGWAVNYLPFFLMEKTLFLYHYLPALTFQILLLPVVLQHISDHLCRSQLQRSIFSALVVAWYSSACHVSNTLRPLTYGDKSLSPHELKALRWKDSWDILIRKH
UniProt Q6T4P5: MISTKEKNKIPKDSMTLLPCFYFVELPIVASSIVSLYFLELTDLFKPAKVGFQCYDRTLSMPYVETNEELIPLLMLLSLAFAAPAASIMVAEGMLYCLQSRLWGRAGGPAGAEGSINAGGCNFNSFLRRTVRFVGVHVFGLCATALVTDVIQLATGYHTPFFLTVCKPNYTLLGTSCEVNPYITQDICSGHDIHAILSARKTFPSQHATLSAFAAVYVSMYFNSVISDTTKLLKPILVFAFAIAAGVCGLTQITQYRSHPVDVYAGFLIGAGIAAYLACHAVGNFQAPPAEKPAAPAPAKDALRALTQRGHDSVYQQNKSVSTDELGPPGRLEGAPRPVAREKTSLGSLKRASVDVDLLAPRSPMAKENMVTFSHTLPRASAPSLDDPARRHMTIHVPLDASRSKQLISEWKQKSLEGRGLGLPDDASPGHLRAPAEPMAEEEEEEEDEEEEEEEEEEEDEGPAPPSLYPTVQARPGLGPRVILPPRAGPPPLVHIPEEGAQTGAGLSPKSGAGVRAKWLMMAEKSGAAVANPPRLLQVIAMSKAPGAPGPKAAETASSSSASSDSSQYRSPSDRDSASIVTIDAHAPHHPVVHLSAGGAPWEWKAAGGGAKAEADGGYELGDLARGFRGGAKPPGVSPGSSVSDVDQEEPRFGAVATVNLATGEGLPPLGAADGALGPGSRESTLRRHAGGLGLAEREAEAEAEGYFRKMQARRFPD

Legend:
Experiment in all cases: log2 fold change, soluble protein after heating vs DMSO (PISA); higher = thermal stabilisation; K562 cells, 10 uM, 30 min; active = over 0.2 and 3.5 SD of the protein, either way, in both replicates (recomputed)
[1] = compound: C1=CC=C(C=C1)[C@H](COC2=CC3=C(C=C2)NC(=O)N3)NC(=O)C4=CC=CN(C4=O)CC5=CC(=C(C=C5)F)F
Method in brief: (§1)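 Values are thermal stability changes relative to control samples and are taken from duplicates. They are stated as log2 fold changes. Before quantification by TMTpro 16plex LC-MS/MS with equalised channel sums, K562 cells at 2×10^6 cells/mL were treated with 10 μM compound for 30 min, heated in aliquots for 3 min across 48°C-58°C, pooled, extracted in PBS with 0.5% NP-40 at 4°C, and centrifuged at 21,000xg for 90 min to give the soluble supernatant.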

[2] = compound: CC1=C(SC2=C1C(=N[C@H](C3=NN=C(N32)C)CC(=O)N)C4=CC=C(C=C4)Cl)C
Method in brief: as §1

[3] = compound: c1ccc([C@@H]2C[C@H]2NC2CCNCC2)cc1
Method in brief: as §1

[4] = compound: Cc1sc2c(c1C)C(c1ccc(Cl)cc1)=N[C@@H](CC(=O)OC(C)(C)C)c1nnc(C)n1-2
Method in brief: as §1

[5] = compound: CC1=C2C(=CC=C1)N=C(N(C2=O)C3=CC=CC=C3C)CN4C=NC5=C(N=CN=C54)N
Method in brief: as §1

Measured: log2 fold change

POLE (UniProt Q07864)
inactive: [1] 0.015 | [2] 0.118 | [3] -0.122

PNMT (UniProt P11086)
inactive: [2] 0.072 | [4] 0.029 | [3] -0.002

PLTP (UniProt P55058)
inactive: [2] 0.035 | [5] 0.16 | [3] 0.018

POLG, A0A3B3IS91
inactive: [4] -0.027

PLSCR3 (UniProt Q9NRY6)
inactive: [2] -0.01 | [3] 0.239

PLGRKT (UniProt Q9HBL7)
inactive: [1] -0.02 | [2] 0.17 | [4] -0.082 | [3] -0.018

PNPLA6 (UniProt Q8IY17)
inactive: [1] -0.003 | [2] -0.011 | [5] 0.054 | [4] 0.023 | [3] -0.04

Two successive entries from above:
POLG, A0A3B3IS91
inactive: [4] -0.027

PLSCR3 (UniProt Q9NRY6)
inactive: [2] -0.01 | [3] 0.239

The list continues:

PPHLN1 isoform 3 (UniProt Q8NEY8)
inactive: [2] 0.168 | [4] -0.074 | [3] 0.443

POLR2J (UniProt P52435)
inactive: [1] -0.054 | [2] 0.178 | [3] -0.024

POMT1 (UniProt Q9Y6A1)
inactive: [5] 0.107 | [4] 0.139

POGZ (UniProt Q7Z3K3)
inactive: [2] 0.056 | [5] 0.099 | [4] 0.025 | [3] -0.032

PLPPR3 isoform 3 (UniProt Q6T4P5)
inactive: [2] 0.003 | [3] 0.093

PNKP (UniProt Q96T60)
inactive: [2] 0.107 | [5] 0.229 | [4] -0.02 | [3] -0.078
